Measurements from PMC9445082.
No constants are given. Whether binding was seen depends on the method and setting. In cells and extracts the contact can be indirect. Some results given as binding are weak or reduced against the parent protein; the word gives no strength. Tags and fused reporters may be left off the sequences shown.

Chains of the proteins cited; added tags and fusions are not shown.
UniProt Q6RET7: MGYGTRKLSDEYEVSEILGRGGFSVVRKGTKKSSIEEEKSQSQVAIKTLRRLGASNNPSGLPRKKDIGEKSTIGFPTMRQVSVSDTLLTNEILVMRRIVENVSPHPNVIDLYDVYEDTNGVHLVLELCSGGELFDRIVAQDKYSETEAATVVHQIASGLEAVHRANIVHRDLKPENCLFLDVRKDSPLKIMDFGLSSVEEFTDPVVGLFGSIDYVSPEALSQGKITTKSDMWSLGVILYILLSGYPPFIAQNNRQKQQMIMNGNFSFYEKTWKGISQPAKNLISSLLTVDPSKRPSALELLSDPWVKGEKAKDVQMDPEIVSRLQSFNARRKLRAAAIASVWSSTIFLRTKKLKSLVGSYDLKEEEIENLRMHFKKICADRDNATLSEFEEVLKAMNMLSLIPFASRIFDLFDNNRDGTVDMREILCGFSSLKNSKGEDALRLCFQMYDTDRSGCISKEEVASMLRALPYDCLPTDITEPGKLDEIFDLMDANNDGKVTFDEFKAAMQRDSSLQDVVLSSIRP

T1: VPY-GFP (Medicago truncatula) (UniProt D3J162)
T1 sequence: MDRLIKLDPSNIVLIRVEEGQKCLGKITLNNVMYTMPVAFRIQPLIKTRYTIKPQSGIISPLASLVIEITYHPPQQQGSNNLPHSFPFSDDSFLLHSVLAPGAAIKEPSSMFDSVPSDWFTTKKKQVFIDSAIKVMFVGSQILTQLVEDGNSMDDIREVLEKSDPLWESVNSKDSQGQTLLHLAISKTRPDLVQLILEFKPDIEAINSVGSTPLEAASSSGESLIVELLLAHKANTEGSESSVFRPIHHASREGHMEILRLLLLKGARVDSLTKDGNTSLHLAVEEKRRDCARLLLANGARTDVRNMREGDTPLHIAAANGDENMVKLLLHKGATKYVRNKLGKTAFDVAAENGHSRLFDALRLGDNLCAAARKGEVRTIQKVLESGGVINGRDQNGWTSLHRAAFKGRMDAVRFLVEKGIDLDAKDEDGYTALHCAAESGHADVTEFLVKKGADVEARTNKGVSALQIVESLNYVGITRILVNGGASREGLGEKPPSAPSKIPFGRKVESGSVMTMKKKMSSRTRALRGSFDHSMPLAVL


Experiments:
[1] = biological target: T1, VPY-GFP (Medicago truncatula); experiment: co-IP; tagged proteins co-expressed in N. benthamiana leaves (agroinfiltration, 2 days); extract in 150 mM Tris-HCl pH 7.5, 150 mM NaCl, 10% glycerol, 10 mM EDTA, 0.1% Tween-20; GFP-tagged protein captured on GFP-Trap MA beads, 2 h at 4 °C; four washes; partner detected by western blot
[2] = biological target: GFP-DMI3 (Medicago truncatula) (UniProt Q6RET7); experiment: as above

| binding [1] | binding [2] | Molecule |
| --- | --- | --- |
| binds | – | DMI3-FLAG (from UniProt Q6RET7 1-523) (enzyme) |
| – | binds | VPY-HA (protein, UniProt D3J162 1-541) MDRLIKLDPSNIVLIRVEEGQKCLGKITLNNVMYTMPVAFRIQPLIKTRYTIKPQSGIISPLASLVIEITYHPPQQQGSNNLPHSFPFSDDSFLLHSVLAPGAAIKEPSSMFDSVPSDWFTTKKKQVFIDSAIKVMFVGSQILTQLVEDGNSMDDIREVLEKSDPLWESVNSKDSQGQTLLHLAISKTRPDLVQLILEFKPDIEAINSVGSTPLEAASSSGESLIVELLLAHKANTEGSESSVFRPIHHASREGHMEILRLLLLKGARVDSLTKDGNTSLHLAVEEKRRDCARLLLANGARTDVRNMREGDTPLHIAAANGDENMVKLLLHKGATKYVRNKLGKTAFDVAAENGHSRLFDALRLGDNLCAAARKGEVRTIQKVLESGGVINGRDQNGWTSLHRAAFKGRMDAVRFLVEKGIDLDAKDEDGYTALHCAAESGHADVTEFLVKKGADVEARTNKGVSALQIVESLNYVGITRILVNGGASREGLGEKPPSAPSKIPFGRKVESGSVMTMKKKMSSRTRALRGSFDHSMPLAVL |
